# Values quoted from earlier work, collected in patent US10970594B2, “Magnetic resonance maps for analyzing tissue” (Tel HaShomer Medical Research Infrastructure and Services …, priority 2011, dated 2021).
# For at least one compound, name, drawing or mass did not settle the structure.
# Tested on: newly diagnosed GBM
# Conditions: TMZ added to adjuvant radiation therapy, 12.1 months without TMZ; cited from earlier work
smiles,measurement,value
Cn1nnc2c(C(N)=O)ncn2c1=O [temozolomide],median survival,14.6 months
